Laboratory results: PubChem BioAssay AID248 (DTP/NCI, 2004)
The list shows only some results of the screen, not a fair sample: it gathers tests that were run many times, whatever their T/C, doses with no T/C, and many T/C values between a quarter and a half above the control. Other doses and runs of a compound stand elsewhere. T/C is the treated group as % of the vehicle group. Some doses have a count of surviving animals in place of a T/C: the source files T/C as zero there, which appears to mark a toxic dose or a test without result, not a measured value. Some doses without a T/C left all or most animals alive at the check, yet need not have been tolerated: survival well below the control is almost never listed, so the zero probably covers shortened survival too. Survivors were counted at the toxicity check, usually on the fifth day, unless a day is given; later deaths do not show. Schedules are NCI's codes, read here as Q, the interval in days (D) or hours (H), X, the number of doses. Counts like (3×) give the number of equal values in this list. Some entries hold several experiments; the results are listed from low to high. Where survival is the endpoint, the PubChem record calls one and a half times the control and up active, and a quarter to a half above the control has no call in these data; cut-offs in other NCI protocols can differ. Some schedule codes hold Z or #, which are not explained here.

System: L1210 leukemia ip in BDF1 mice, survival T/C
Test: NCI In Vivo Anticancer Drug Screen. Data for tumor model L1210 Leukemia (intraperitoneal) in B6D2F1 (BDF1) mice
Conditions: T/C endpoint: mean survival time, higher T/C = longer survival
[1] = dose: 22.0 mg/kg/injection, schedule: Q01DX001 (ip), vehicle: saline
[2] = dose: 100.0 mg/kg/injection, schedule: Q01DX001 (ip), vehicle: saline
[3] = dose: 200.0 mg/kg/injection, schedule: Q01DX001 (ip), vehicle: saline
[4] = dose: 400.0 mg/kg/injection, schedule: Q01DX009 (ip), vehicle: Klucel (hydroxypropylcellulose) (HPC)
[5] = dose: 400.0 mg/kg/injection, schedule: Q01DX001 (ip), vehicle: saline

CC1CN1CC(O)C(O)CN1CC1C (stereo not given)
T/C (dose: 0.14 mg/kg/injection, schedule: Q01DX015 (ip), vehicle: saline): 130 % of control | T/C (dose: 0.17 mg/kg/injection, schedule: Q01DX009 (ip), vehicle: saline): 128 and 140 % of control | T/C (dose: 0.22 mg/kg/injection, schedule: Q01DX015 (ip), vehicle: saline): 147 % of control | T/C (dose: 0.26 mg/kg/injection, schedule: Q01DX009 (ip), vehicle: saline): 133 % of control | T/C (dose: 0.4 mg/kg/injection, schedule: Q01DX009 (ip), vehicle: saline): 142 % of control | T/C (dose: 0.4 mg/kg/injection, schedule: Q04DX003 (ip), vehicle: saline): 130 % of control | T/C (dose: 0.46 mg/kg/injection, schedule: Q01DX Z (ip), vehicle: saline): 132 % of control | T/C (dose: 0.5 mg/kg/injection, schedule: Q01DX015 (ip), vehicle: saline): 133 and 139 % of control | T/C (dose: 0.6 mg/kg/injection, schedule: Q01DX015 (ip), vehicle: saline): 130 % of control | T/C (dose: 0.71 mg/kg/injection, schedule: Q01DX001 (ip), vehicle: saline): 130 % of control | T/C (dose: 1.0 mg/kg/injection, schedule: Q01DX001 (ip), vehicle: saline): 130 % of control | T/C (dose: 1.0 mg/kg/injection, schedule: Q01DX015 (ip), vehicle: saline): 148 and 149 % of control | T/C (dose: 1.6 mg/kg/injection, schedule: Q01DX001 (ip), vehicle: saline): 145 % of control | T/C (dose: 2.0 mg/kg/injection, schedule: Q01DX001 (ip), vehicle: saline): 133 % of control | T/C (dose: 2.5 mg/kg/injection, schedule: Q01DX001 (ip), vehicle: carboxymethylcellulose (CMC)): 141 % of control | T/C (dose: 2.5 mg/kg/injection, schedule: Q01DX001 (ip), vehicle: saline): 142 % of control | T/C (dose: 2.75 mg/kg/injection, schedule: Q01DX001 (ip), vehicle: saline): 139 % of control | T/C (dose: 3.0 mg/kg/injection, schedule: Q01DX001 (ip), vehicle: saline): 144 % of control | survivor count (dose: 3.0 mg/kg/injection, schedule: Q01DX015 (ip), vehicle: saline): 5 of 6 (2×) | T/C (dose: 3.3 mg/kg/injection, schedule: Q04DX003 (ip), vehicle: saline): 139 % of control | T/C (dose: 4.0 mg/kg/injection, schedule: Q01DX015 (ip), vehicle: saline): 148 % of control | T/C (dose: 5.0 mg/kg/injection, schedule: Q04DX003 (ip), vehicle: saline): 147 % of control | T/C (dose: 6.0 mg/kg/injection, schedule: Q01DX015 (ip), vehicle: saline): 142 % of control | T/C (dose: 10.0 mg/kg/injection, schedule: Q04DX003 (ip), vehicle: saline): 140 % of control | survivor count (dose: 12.0 mg/kg/injection, schedule: Q01DX015 (ip), vehicle: saline): 5 of 6 and 6 of 6 | survivor count (dose: 18.0 mg/kg/injection, schedule: Q01DX015 (ip), vehicle: saline): 0 of 6 | T/C (dose: 20.0 mg/kg/injection, schedule: Q01DX001 (ip), vehicle: carboxymethylcellulose (CMC)): 127 % of control | survivor count (dose: 20.0 mg/kg/injection, schedule: Q01DX001 (ip), vehicle: saline): 2 of 6 | survivor count (dose: 20.0 mg/kg/injection, schedule: Q04DX003 (ip), vehicle: saline): 6 of 6 | T/C [1]: 100 % of control | survivor count [1]: 0 of 4, 1 of 4, 2 of 4 | survivor count (dose: 27.0 mg/kg/injection, schedule: Q01DX015 (ip), vehicle: saline): 0 of 6 | survivor count (dose: 30.0 mg/kg/injection, schedule: Q01DX001 (ip), vehicle: saline): 0 of 6 | survivor count (dose: 33.0 mg/kg/injection, schedule: Q01DX001 (ip), vehicle: saline): 0 of 4 and 1 of 4 | survivor count (dose: 44.0 mg/kg/injection, schedule: Q01DX001 (ip), vehicle: saline): 0 of 4 | survivor count (dose: 45.0 mg/kg/injection, schedule: Q01DX001 (ip), vehicle: saline): 0 of 6 | T/C (dose: 50.0 mg/kg/injection, schedule: Q01DX001 (ip), vehicle: carboxymethylcellulose (CMC)): 141 % of control | survivor count (dose: 50.0 mg/kg/injection, schedule: Q01DX001 (ip), vehicle: saline): 0 of 4 (2×) | survivor count (dose: 60.0 mg/kg/injection, schedule: Q01DX001 (ip), vehicle: saline): 0 of 6 | survivor count (dose: 65.0 mg/kg/injection, schedule: Q01DX001 (ip), vehicle: saline): 0 of 6 | survivor count (dose: 75.0 mg/kg/injection, schedule: Q01DX001 (ip), vehicle: saline): 0 of 4 | survivor count (dose: 100.0 mg/kg/injection, schedule: Q01DX001 (ip), vehicle: carboxymethylcellulose (CMC)): 0 of 4 | survivor count [2]: 0 of 4 | survivor count (dose: 120.0 mg/kg/injection, schedule: Q01DX001 (ip), vehicle: saline): 0 of 6 | survivor count (dose: 200.0 mg/kg/injection, schedule: Q01DX001 (ip), vehicle: carboxymethylcellulose (CMC)): 0 of 4 | survivor count [3]: 0 of 4 | survivor count (dose: 400.0 mg/kg/injection, schedule: Q01DX001 (ip), vehicle: carboxymethylcellulose (CMC)): 0 of 4 | T/C (dose: 93.0 micrograms/kg/injection, schedule: Q01DX015 (ip), vehicle: saline): 125 % of control | T/C (dose: 140.0 micrograms/kg/injection, schedule: Q01DX015 (ip), vehicle: saline): 138 % of control | T/C (dose: 315.0 micrograms/kg/injection, schedule: Q01DX001 (ip), vehicle: saline): 132 % of control | T/C (dose: 473.0 micrograms/kg/injection, schedule: Q01DX001 (ip), vehicle: saline): 135 % of control

CCCCCCCCC(=O)C[N+](=O)[O-]
survivor count (dose: 150.0 mg/kg/injection, schedule: Q01DX001 (ip), vehicle: saline): 1 of 6 | survivor count (dose: 300.0 mg/kg/injection, schedule: Q01DX001 (ip), vehicle: saline): 0 of 6

c1cc2c(c(OCC3=NCCN3)c1)CCC2
survivor count (dose: 50.0 mg/kg/injection, schedule: Q01DX009 (ip), vehicle: Klucel (hydroxypropylcellulose) (HPC)): 3 of 6 | survivor count (dose: 100.0 mg/kg/injection, schedule: Q01DX009 (ip), vehicle: Klucel (hydroxypropylcellulose) (HPC)): 0 of 6 | survivor count (dose: 200.0 mg/kg/injection, schedule: Q01DX009 (ip), vehicle: Klucel (hydroxypropylcellulose) (HPC)): 0 of 6 | survivor count [4]: 0 of 6

NC(=O)c1cc([N+](=O)[O-])ccc1N=NN(CCCl)CCCl
T/C (dose: 100.0 mg/kg/injection, schedule: Q01DX009 (ip), vehicle: saline with Tween-80): 140 % of control | T/C (dose: 200.0 mg/kg/injection, schedule: Q04DX003 (ip), vehicle: saline with Tween-80): 132 % of control | survivor count (dose: 400.0 mg/kg/injection, schedule: Q01DX009 (ip), vehicle: saline with Tween-80): 0 of 6 | T/C (dose: 400.0 mg/kg/injection, schedule: Q04DX003 (ip), vehicle: saline with Tween-80): 125 % of control | T/C (dose: 600.0 mg/kg/injection, schedule: Q04DX003 (ip), vehicle: saline with Tween-80): 136 % of control

CCOC(=O)c1cnn(-c2ccccc2)c1N
survivor count (dose: 200.0 mg/kg/injection, schedule: Q01DX009 (ip), vehicle: saline): 2 of 6 | survivor count (dose: 400.0 mg/kg/injection, schedule: Q01DX009 (ip), vehicle: saline): 0 of 6

O=C/C=C/C=O
survivor count [2]: 0 of 3 | survivor count [3]: 0 of 3 | survivor count [5]: 0 of 3

CCCCCCCCCCc1ccccc1
survivor count (dose: 100.0 mg/kg/injection, schedule: Q04DX002 (ip), vehicle: saline with Tween-80): 3 of 3 | survivor count (dose: 400.0 mg/kg/injection, schedule: Q04DX002 (ip), vehicle: saline with Tween-80): 3 of 3

Cn1c(=O)c2c(ncn2CC[n+]2cccc(C(N)=O)c2)n(C)c1=O
survivor count (dose: 400.0 mg/kg/injection, schedule: Q04DX003 (ip), vehicle: saline): 2 of 4

Oc1ccc(O)c(Cl)c1
survivor count [3]: 0 of 4 | survivor count (dose: 200.0 mg/kg/injection, schedule: Q04DX002 (ip), vehicle: saline): 1 of 3 | survivor count (dose: 400.0 mg/kg/injection, schedule: Q01DX001 (ip), vehicle: Klucel (hydroxypropylcellulose) (HPC)): 0 of 3 | survivor count [5]: 0 of 4

O=C(O)c1c(Cl)nsc1Cl
survivor count [4]: 0 of 6
